PubChem BioAssay AID743121 – NCATS – 2013
Test: 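Partners whose loss is lethal together with topoisomerase I blockade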 (primary screen). Cell system: MDA-MB-231 cells, a human breast cancer line. Reagent: single siRNA against human genes, 20 nM siRNA (0.8 pmol per well). Duration: 120 h (drug added 48 h after transfection, read 72 h later). Challenge: camptothecin 20 nM (about EC30) for 72 h; vehicle 0.1% DMSO in parallel plates. Read-out: 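CellTiter-Glo ATP signal, scaled to control siRNA as percent viability; sensitisation given as log2 of untreated divided by camptothecin-treated viability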. Direction: log2 vehicle/camptothecin viability: higher = stronger sensitisation to camptothecin. Active means: 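Each gene scored by redundant siRNA activity (RSA) over its individual siRNA ratios; a gene is called active at p < 0.001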.
Shown is a random part of about 26,000 reagents tested. In the full data, 167 (0.63%) got an active call. 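Calls are per gene from RSA p-values that are not deposited; an individual active-marked siRNA can sensitise only weakly.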 Reagents against one gene are numbered here. Not all columns of the deposit are shown.

Knock-down of ASCL2 (GeneID 430) #1 resulted in: log2 vehicle/camptothecin viability -0.566; inactive.
Against ASCL2 (GeneID 430) #2, the entry reads log2 vehicle/camptothecin viability -0.0267; inactive.
ASCL2 (GeneID 430) #3 scored log2 vehicle/camptothecin viability -0.172; inactive.
ASCL2 (GeneID 430) #4 scored log2 vehicle/camptothecin viability -0.213; inactive.
Knock-down of ADA (GeneID 100) #1 resulted in: log2 vehicle/camptothecin viability 0.349; inactive.
Against ADA (GeneID 100) #2, the values are log2 vehicle/camptothecin viability -0.421; inactive.
Depletion of ADA (GeneID 100) #3 came out at: log2 vehicle/camptothecin viability -0.269; inactive.
Depletion of PTGER4P2-CDK2AP2P2 (GeneID 442421) #1 came out at: log2 vehicle/camptothecin viability -0.114; inactive.
For PTGER4P2-CDK2AP2P2 (GeneID 442421) #2 the deposit lists log2 vehicle/camptothecin viability -0.262; inactive.
PTGER4P2-CDK2AP2P2 (GeneID 442421) #3 gave log2 vehicle/camptothecin viability -0.248; inactive.
PRPSAP2 (GeneID 5636) #1 gave log2 vehicle/camptothecin viability 0.0472; inactive.
With knock-down of PRPSAP2 (GeneID 5636) #2 the results were log2 vehicle/camptothecin viability -0.359; inactive.
Knock-down of PRPSAP2 (GeneID 5636) #3 gave: log2 vehicle/camptothecin viability 0.0605; inactive.
Depletion of CD33 (GeneID 945) #1 resulted in: log2 vehicle/camptothecin viability -0.465; inactive.
Knock-down of CD33 (GeneID 945) #2 came out at: log2 vehicle/camptothecin viability 0.815; inactive.
Against CD33 (GeneID 945) #3 the deposit lists log2 vehicle/camptothecin viability 0.395; inactive.
Against CD33 (GeneID 945) #4, the values are log2 vehicle/camptothecin viability -0.595; inactive.

A stretch from the list above:
PRPSAP2 (GeneID 5636) #2: log2 vehicle/camptothecin viability = -0.359; Call = inactive
PRPSAP2 (GeneID 5636) #3: log2 vehicle/camptothecin viability = 0.0605; Call = inactive
